# Measured values published in US11684616B2, “Azalactam compounds as HPK1 inhibitors” (PFIZER INC., priority 2020, dated 2023).
# Sequences of proteins named here, by UniProt entry; tags and fusion partners are left off. A change or cut given only in a name is not applied to a line headed by its entry.
# UniProt Q9BZL6: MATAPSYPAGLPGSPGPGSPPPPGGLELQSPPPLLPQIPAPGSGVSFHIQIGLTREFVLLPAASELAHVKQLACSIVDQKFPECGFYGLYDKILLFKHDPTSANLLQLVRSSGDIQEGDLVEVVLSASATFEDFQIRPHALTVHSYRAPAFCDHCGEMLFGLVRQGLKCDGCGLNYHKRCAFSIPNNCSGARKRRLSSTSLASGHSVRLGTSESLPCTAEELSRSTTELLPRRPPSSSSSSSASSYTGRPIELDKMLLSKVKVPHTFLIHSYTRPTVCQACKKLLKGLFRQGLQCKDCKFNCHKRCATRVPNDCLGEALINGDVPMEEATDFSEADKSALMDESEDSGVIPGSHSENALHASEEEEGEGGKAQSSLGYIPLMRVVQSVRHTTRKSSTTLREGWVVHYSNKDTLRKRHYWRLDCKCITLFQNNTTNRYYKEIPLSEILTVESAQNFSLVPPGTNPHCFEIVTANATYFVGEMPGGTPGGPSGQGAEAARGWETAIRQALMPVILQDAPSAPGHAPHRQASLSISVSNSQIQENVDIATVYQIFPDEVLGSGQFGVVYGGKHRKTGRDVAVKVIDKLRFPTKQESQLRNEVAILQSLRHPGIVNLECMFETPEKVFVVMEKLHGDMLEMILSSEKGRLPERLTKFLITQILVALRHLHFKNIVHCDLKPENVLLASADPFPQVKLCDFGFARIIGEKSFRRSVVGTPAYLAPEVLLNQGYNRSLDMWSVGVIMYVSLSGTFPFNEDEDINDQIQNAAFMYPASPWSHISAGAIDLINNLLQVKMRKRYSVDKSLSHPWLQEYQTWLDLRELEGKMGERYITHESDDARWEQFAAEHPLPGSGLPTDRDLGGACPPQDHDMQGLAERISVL
# UniProt Q15349, whole entry: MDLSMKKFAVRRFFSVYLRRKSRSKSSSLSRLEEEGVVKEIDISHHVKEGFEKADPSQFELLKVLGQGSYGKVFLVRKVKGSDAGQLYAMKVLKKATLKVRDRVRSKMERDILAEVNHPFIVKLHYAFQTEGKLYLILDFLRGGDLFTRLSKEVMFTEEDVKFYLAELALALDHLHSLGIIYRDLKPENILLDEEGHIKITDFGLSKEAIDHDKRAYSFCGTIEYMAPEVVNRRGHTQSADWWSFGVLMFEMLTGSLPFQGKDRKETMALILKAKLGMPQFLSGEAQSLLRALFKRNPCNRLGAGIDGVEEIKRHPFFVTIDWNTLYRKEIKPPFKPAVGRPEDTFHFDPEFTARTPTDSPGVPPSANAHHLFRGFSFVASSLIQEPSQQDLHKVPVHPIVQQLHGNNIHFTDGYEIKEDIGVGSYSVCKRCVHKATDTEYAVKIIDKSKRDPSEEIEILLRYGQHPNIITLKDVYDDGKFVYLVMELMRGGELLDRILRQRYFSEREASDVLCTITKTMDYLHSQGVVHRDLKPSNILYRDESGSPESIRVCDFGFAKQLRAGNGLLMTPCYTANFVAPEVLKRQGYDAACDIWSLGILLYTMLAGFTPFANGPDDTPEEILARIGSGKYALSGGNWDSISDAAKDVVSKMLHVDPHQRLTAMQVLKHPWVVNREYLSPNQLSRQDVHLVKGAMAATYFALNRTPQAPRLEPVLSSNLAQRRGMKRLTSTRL
# For at least one compound, name, drawing or mass did not settle the structure.
# Legend:
# [1] = molecular target: Human recombinant full-length GST-tagged PRKD2 (PKD2) (Homo sapiens (Human), UniProt Q9BZL6); assay: Biochemical selectivity kinase assay (Z'-LYTE FRET), PRKD2; settings: ratio of the PRKD2 IC50 to the HPK1 Ki
# From the text: (§1) Biochemical Selectivity Kinase Assay.
# (§2) The dose response curve was curve fit to model number 205 (sigmoidal dose-response model). A ratio of the PRKD2 IC50 to the HPK1 Ki and a ratio of the RSK3 IC50 to the HPK1 Ki, is provided in the respective columns adjacent to the columns for PRKD2 IC50 and RSK3 IC50.
# [2] = molecular target: Human recombinant full-length GST-tagged RPS6KA2 (RSK3) (Homo sapiens (Human), UniProt Q15349); assay: Biochemical selectivity kinase assay (Z'-LYTE FRET), RSK3; settings: ratio of the RSK3 IC50 to the HPK1 Ki
# From the text: as §1, §2
SMILES,PRKD2 IC50/HPK1 Ki [1],RSK3 IC50/HPK1 Ki [2]
CC[C@@H](N)c1nc(N(C)C(C)C)cc2c1CN(c1cccc(-c3nnc4n3[C@@H](C)CC4)n1)C2=O [Example 5],>5020,>1080
"COC[C@@H](N)c1nc(C2(C)CC2)cc2c1CN(c1cccc(-c3nnc4n3[C@@H](C)CC4)n1)C2=O [Example 6a, 4-[(1)-1-amino-2-methoxyethyl]-6-(1-methylcyclopropyl)-2-{6-[(5S)-5-methyl-6,7-dihydro-5H-pyrrolo[2,1-c][1,2,4]triazol-3-yl]pyridin-2-yl}-2,3-dihydro-1H-pyrrolo[3,4-c]pyridin-1-one]",4958,256
